Reference: ChEMBL document CHEMBL4673174, “meta-Substituted benzenesulfonamide: a potent scaffold for the development of metallo-beta-lactamase ImiS inhibitors” (RSC Med Chem, 2020)
In brackets after ≈: the same amount, converted by molar mass.

System: Escherichia coli
Assay: Antibacterial activity against Escherichia coli BL21 (DE3) assessed as inhibition of bacterial growth incubated for 16 hrs by CLSI broth microdilution method
Format: functional

- MIC: 0.0375 µg/mL (≈ 0.0978 µM)
Structure (SMILES): C[C@@H](O)[C@H]1C(=O)N2C(C(=O)O)=C(S[C@@H]3CN[C@H](C(=O)N(C)C)C3)[C@H](C)[C@H]12 [MEROPENEM]
